Test results: the supplement of paper PMC10849652
This is one part of the list.

Amino acid sequences for entries named in this document (tags omitted). A change or cut given only in a name is not applied to a line headed by its entry.
UniProt O95196: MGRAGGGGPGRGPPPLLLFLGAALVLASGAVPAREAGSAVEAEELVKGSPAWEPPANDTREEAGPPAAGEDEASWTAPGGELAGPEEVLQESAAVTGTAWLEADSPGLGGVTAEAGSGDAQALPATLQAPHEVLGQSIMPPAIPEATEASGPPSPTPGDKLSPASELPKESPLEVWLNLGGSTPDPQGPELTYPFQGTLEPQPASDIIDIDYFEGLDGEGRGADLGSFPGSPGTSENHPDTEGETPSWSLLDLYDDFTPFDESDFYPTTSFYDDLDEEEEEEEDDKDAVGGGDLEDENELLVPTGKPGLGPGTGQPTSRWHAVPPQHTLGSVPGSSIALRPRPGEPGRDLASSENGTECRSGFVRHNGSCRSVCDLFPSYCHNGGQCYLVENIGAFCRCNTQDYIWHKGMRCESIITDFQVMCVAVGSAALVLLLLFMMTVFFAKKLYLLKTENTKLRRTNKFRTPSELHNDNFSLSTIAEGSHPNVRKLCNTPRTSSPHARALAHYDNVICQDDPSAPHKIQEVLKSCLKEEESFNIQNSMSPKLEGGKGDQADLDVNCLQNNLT
UniProt P78368: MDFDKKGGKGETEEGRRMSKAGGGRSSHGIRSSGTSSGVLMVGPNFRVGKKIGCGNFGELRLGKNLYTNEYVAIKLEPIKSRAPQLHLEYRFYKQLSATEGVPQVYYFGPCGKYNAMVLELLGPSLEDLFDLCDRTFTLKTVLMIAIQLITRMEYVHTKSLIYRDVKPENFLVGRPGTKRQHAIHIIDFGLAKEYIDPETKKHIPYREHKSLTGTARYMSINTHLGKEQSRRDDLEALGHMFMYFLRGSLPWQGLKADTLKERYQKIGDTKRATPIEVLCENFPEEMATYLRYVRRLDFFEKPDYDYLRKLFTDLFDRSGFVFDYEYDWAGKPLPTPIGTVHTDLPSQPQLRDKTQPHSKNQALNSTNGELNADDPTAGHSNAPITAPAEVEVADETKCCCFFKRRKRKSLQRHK
UniProt Q9NXE8: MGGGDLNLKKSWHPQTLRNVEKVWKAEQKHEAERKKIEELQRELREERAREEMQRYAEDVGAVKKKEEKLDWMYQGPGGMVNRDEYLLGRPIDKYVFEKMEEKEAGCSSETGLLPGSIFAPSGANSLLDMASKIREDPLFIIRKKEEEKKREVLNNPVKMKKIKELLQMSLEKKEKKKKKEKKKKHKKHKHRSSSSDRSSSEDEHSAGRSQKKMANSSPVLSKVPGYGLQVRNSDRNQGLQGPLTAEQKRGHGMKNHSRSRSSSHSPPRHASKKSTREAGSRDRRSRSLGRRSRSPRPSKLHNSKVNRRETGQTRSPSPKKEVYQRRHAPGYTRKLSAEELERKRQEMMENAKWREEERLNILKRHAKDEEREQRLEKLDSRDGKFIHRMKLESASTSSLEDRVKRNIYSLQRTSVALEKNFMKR
UniProt Q9BQA9: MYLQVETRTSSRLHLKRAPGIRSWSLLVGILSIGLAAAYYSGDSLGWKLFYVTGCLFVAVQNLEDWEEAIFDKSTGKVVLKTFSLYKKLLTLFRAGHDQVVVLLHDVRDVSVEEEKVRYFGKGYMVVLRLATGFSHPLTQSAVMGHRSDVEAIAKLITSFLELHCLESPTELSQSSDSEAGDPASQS
UniProt Q6GPI1, whole entry, looked up: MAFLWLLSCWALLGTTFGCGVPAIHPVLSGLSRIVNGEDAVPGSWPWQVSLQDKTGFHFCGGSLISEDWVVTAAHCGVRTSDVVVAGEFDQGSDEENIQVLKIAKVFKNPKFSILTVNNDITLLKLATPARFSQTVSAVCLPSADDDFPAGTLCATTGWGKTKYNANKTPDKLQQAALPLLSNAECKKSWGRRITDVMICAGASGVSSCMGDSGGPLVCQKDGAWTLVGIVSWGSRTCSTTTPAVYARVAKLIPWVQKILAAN
UniProt Q16619: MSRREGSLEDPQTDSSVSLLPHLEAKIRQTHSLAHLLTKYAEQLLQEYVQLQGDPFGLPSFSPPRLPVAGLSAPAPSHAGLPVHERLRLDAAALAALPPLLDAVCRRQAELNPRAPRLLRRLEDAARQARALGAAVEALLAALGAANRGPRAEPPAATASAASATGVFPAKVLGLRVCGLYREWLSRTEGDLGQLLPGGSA
UniProt H7BZ55: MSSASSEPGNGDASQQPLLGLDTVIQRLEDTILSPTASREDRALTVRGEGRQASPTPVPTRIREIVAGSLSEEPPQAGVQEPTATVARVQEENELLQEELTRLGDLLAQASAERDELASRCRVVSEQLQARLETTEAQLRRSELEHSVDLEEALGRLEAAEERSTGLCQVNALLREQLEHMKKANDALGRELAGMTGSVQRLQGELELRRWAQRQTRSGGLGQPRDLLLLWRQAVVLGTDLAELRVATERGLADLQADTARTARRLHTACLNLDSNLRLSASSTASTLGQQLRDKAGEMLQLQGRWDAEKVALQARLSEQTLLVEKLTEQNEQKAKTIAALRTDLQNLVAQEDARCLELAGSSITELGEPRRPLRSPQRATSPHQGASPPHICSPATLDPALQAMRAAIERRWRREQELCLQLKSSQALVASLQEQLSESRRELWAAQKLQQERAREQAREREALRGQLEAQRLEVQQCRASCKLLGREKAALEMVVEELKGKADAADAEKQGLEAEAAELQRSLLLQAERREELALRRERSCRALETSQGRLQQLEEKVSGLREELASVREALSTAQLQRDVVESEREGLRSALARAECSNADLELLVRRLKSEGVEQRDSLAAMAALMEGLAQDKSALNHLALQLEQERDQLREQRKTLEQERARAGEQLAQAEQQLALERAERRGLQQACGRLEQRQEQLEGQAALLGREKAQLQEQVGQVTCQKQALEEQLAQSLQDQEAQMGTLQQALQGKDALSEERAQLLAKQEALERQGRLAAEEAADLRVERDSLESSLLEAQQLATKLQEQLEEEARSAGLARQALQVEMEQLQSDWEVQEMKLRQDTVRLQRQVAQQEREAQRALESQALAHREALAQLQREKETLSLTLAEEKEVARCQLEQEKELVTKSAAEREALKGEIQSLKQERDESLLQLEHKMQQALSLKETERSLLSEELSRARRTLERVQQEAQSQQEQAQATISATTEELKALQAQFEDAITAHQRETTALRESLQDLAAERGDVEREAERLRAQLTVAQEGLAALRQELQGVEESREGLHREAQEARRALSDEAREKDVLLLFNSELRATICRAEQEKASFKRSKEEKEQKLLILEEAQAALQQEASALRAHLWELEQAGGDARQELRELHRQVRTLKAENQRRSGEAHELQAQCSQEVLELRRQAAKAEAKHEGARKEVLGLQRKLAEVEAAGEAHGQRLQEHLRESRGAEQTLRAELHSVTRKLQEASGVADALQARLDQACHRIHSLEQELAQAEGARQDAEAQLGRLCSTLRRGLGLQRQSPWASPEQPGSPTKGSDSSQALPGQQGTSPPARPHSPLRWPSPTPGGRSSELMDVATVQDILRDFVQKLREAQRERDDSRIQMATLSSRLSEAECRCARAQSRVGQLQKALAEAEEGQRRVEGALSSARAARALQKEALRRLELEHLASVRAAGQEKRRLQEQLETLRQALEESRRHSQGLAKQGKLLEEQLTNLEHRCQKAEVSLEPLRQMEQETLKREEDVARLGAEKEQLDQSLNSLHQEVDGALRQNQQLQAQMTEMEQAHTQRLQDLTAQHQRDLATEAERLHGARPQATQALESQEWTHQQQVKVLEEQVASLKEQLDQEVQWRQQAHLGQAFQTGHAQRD
UniProt Q7LFL8: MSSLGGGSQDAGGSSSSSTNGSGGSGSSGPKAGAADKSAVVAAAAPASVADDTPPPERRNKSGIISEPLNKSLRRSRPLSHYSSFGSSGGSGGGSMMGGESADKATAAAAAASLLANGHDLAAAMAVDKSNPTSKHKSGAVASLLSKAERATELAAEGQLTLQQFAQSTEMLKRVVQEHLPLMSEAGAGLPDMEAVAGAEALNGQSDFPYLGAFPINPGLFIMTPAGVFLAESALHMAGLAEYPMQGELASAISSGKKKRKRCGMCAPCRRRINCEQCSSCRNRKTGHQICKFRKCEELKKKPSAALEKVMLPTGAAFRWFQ
UniProt Q03060: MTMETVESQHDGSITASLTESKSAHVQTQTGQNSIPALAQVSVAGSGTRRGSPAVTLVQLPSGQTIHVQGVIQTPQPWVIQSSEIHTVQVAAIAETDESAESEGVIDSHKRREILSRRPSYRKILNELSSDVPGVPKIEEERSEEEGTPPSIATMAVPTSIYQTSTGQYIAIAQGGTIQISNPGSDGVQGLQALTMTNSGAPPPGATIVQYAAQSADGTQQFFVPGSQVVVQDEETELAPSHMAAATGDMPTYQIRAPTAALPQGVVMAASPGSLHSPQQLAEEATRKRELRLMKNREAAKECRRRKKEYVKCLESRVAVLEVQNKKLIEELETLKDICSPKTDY
UniProt Q9UKG9: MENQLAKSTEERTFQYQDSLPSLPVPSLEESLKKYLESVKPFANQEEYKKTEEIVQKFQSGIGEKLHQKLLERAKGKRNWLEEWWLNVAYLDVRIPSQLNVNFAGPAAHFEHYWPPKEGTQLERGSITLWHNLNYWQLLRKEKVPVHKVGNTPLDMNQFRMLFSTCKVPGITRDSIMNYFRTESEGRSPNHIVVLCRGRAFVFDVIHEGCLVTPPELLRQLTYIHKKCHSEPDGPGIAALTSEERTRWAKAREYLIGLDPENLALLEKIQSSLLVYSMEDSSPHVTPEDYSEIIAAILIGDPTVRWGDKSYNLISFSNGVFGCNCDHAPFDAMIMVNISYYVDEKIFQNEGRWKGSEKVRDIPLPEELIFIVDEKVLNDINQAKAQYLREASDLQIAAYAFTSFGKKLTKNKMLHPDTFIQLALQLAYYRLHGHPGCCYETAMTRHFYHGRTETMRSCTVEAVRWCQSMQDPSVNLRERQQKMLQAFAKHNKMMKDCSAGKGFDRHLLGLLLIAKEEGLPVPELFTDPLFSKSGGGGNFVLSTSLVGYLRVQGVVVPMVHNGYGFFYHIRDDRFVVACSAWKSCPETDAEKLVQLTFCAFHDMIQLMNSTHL
UniProt P00167, whole entry, looked up: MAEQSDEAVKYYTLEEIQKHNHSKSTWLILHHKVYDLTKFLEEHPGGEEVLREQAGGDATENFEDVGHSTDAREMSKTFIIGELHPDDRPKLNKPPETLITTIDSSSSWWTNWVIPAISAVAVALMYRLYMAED
UniProt Q9UBX1: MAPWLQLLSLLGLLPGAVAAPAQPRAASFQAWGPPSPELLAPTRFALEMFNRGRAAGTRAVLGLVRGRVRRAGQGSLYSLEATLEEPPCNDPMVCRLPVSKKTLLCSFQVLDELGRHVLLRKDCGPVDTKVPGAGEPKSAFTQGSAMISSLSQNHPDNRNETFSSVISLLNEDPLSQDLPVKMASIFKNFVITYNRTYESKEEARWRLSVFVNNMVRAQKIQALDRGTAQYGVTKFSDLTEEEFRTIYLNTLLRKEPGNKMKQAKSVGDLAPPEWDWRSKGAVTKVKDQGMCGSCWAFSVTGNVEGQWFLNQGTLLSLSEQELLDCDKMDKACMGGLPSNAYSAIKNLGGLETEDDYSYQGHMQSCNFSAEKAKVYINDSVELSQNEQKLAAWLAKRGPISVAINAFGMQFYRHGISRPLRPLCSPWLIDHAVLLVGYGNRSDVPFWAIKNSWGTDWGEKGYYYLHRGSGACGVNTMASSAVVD
UniProt Q8N6G5: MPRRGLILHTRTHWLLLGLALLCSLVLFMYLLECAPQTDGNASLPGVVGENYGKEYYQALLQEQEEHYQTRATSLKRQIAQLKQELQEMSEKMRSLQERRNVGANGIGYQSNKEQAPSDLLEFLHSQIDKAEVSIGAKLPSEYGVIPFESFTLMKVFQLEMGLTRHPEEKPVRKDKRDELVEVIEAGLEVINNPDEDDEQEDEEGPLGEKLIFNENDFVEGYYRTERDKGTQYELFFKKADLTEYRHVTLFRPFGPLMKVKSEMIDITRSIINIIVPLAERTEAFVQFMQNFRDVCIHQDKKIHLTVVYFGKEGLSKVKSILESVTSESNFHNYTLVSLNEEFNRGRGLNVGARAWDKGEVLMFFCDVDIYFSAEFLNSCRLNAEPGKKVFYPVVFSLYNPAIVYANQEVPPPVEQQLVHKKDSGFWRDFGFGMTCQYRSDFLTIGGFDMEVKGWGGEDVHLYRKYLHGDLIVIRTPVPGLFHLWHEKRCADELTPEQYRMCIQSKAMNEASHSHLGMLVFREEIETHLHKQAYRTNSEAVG
UniProt Q16527: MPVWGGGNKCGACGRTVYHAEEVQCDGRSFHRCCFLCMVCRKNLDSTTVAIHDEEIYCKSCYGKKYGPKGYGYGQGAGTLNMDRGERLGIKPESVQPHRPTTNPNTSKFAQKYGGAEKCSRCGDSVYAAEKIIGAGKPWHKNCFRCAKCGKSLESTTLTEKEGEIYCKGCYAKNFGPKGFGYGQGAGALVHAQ
UniProt P52943: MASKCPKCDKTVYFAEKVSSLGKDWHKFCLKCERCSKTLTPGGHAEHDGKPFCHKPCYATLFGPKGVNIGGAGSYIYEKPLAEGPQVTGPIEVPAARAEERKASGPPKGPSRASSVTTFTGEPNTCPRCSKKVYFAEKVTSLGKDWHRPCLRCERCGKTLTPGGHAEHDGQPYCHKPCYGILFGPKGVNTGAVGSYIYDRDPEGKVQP

Columns and labels:
Assay in all cases: log2 fold change, soluble protein after heating vs DMSO (PISA); higher = thermal stabilisation; K562 lysate, 10 uM; active = over 0.2 and 3.5 SD of the protein, either way, in both replicates (recomputed)
vemurafenib = compound: CCCS(=O)(=O)Nc1ccc(F)c(C(=O)c2c[nH]c3ncc(-c4ccc(Cl)cc4)cc23)c1F [vemurafenib]
Outline: (§1)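 Log-two fold change in thermal stability relative to solvent controls is reported from duplicates. For each sample, crude K562 extract from dounce-homogenised pellets in PBS pH 7.4 with 1 mM MgCl2, at 1 mg/mL protein, was treated with 10 μM compound for 30 min. Aliquots heated for 3 min across 48°C-58°C were pooled, brought to 0.5% NP-40 at 4°C and cleared at 21,000xg for 90 min. The supernatant was quantified by TMTpro 16plex LC-MS/MS with channel sums equalised.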

barasertib = compound: CCN(CCCOc1ccc2c(Nc3cc(CC(=O)Nc4cccc(F)c4)[nH]n3)ncnc2c1)CCOP(=O)(O)O [barasertib]
Outline: as §1

[1] = compound: CCn1c(C(=O)N(C2CC2)C2CC2)cc2c3c(ncn3C)c(Nc3cc(C)n(C)n3)nc21
Outline: as §1

sotrastaurin = compound: CN1CCN(c2nc(C3=C(c4c[nH]c5ccccc45)C(=O)NC3=O)c3ccccc3n2)CC1 [sotrastaurin]
Outline: as §1

volasertib = compound: CC[C@@H]1C(=O)N(C)c2cnc(Nc3ccc(C(=O)N[C@H]4CC[C@H](N5CCN(CC6CC6)CC5)CC4)cc3OC)nc2N1C(C)C [volasertib]
Outline: as §1

[2] = compound: CCn1cc(-c2ccnc3[nH]c(-c4cccc(CN(C)C)c4)cc23)c(-c2ccc(NC(=O)N(C)C)cc2)n1
Outline: as §1

[3] = compound: CN1CCC(CNc2ccc3ncc(-c4cccc(OC(F)(F)F)c4)n3n2)CC1
Outline: as §1

saracatinib = compound: CN1CCN(CCOc2cc(OC3CCOCC3)c3c(Nc4c(Cl)ccc5c4OCO5)ncnc3c2)CC1 [saracatinib]
Outline: as §1

[4] = compound: CC[C@@H]1C(=O)N(C)c2cnc(Nc3ccc(C(=O)NC4CCN(C)CC4)cc3OC)nc2N1C1CCCC1
Outline: as §1

[5] = compound: CCCS(=O)(=O)Nc1ccc(F)c(C(=O)c2c[nH]c3ncc(Cl)cc23)c1F
Outline: as §1

Target | log2 fold change (vemurafenib) | log2 fold change (barasertib) | log2 fold change [1] | log2 fold change (sotrastaurin) | log2 fold change (volasertib) | log2 fold change [2] | log2 fold change [3] | log2 fold change (saracatinib) | log2 fold change [4] | log2 fold change [5]
CSPG5 isoform 2 (UniProt O95196) | inactive: -0.28 | inactive: -0.038 | inactive: 0.113 | inactive: -0.006 |  |  |  |  |  | 
CSNK1G2 (UniProt P78368) | inactive: -0.004 | inactive: -0.034 | inactive: 0.104 | inactive: 0.146 | inactive: 0.015 | inactive: -0.366 | inactive: 0.273 | inactive: -0.02 |  | 
CRAMP1 (UniProt Q96RY5) | inactive: 0.053 |  |  |  |  |  |  | inactive: -0.108 | inactive: 0.123 | 
CRAT (UniProt P43155) | inactive: 0.172 | inactive: 0.063 | inactive: -0.013 | inactive: 0.037 | inactive: 0.073 |  |  | inactive: 0.143 |  | inactive: -0.085
CRY2 (UniProt Q49AN0) | inactive: 0.13 |  |  |  |  | inactive: -0.04 | inactive: 0.075 |  |  | 
CWC25 (UniProt Q9NXE8) | inactive: 0.071 | inactive: 0.188 |  | inactive: -0.036 | inactive: 0.069 | inactive: 0.047 | inactive: -0.022 |  | inactive: 0.113 | inactive: -0.046
CTTNBP2NL (UniProt Q9P2B4) | inactive: -0.011 | inactive: -0.006 | inactive: -0.005 | inactive: 0.018 | inactive: 0.067 | inactive: -0.098 | inactive: -0.001 |  | inactive: -0.012 | inactive: -0.024
CSPP1 (UniProt Q1MSJ5) | inactive: 0.03 | inactive: 0.026 | inactive: 0.05 | inactive: -0.046 | inactive: 0.125 | inactive: 0.029 | inactive: -0.006 | inactive: -0.049 | inactive: 0.057 | active: -0.505
CYBC1 (UniProt Q9BQA9) |  | inactive: 0.057 | inactive: 0.051 | inactive: 0.006 | inactive: 0.046 | inactive: -0.205 | inactive: 0.073 | inactive: -0.032 | inactive: -0.003 | inactive: 0.017
CTRB2 (UniProt Q6GPI1) | inactive: 0.09 |  |  |  | inactive: -0.011 | inactive: -0.468 | inactive: 0.395 |  | inactive: 0.04 | inactive: -0.009
CUX1 isoform 2 (UniProt Q13948) | inactive: 0.013 |  | inactive: 0.019 | inactive: 0.081 | inactive: -0.001 | inactive: 0.06 | inactive: -0.34 | inactive: -0.054 | inactive: -0.087 | inactive: 0.084
CTF1 (UniProt Q16619) | inactive: 0.082 |  | inactive: 0.314 | inactive: 0.112 | inactive: -0.071 | inactive: 0.015 | inactive: -0.133 | inactive: 0.036 | inactive: 0.374 | inactive: -0.21
CRTC2 (UniProt H0YDQ8) | inactive: 0.065 |  | inactive: 0.001 |  |  |  |  |  |  | 
CROCC2 (UniProt H7BZ55) |  | inactive: -0.262 |  | inactive: -0.051 | inactive: -0.034 |  |  | inactive: 0.074 | inactive: -0.05 | inactive: -0.011
CTSG (UniProt P08311) |  |  | inactive: -0.042 | inactive: 0.105 |  | inactive: -0.437 | inactive: 0.305 | inactive: 0.081 |  | 
CXXC5 (UniProt Q7LFL8) |  |  |  |  |  |  |  | inactive: -0.145 |  | 
CTSS (UniProt P25774) |  |  |  |  |  | inactive: -0.058 | inactive: 0.227 | inactive: -0.058 | inactive: -0.19 | 
CSNK2A1, A0A2R8Y4D6 |  |  |  |  | inactive: -0.325 |  |  |  |  | inactive: 0.107

No new results follow: entries from further up.
Target | log2 fold change (vemurafenib) | log2 fold change (barasertib) | log2 fold change [1] | log2 fold change (sotrastaurin) | log2 fold change (volasertib) | log2 fold change [2] | log2 fold change [3] | log2 fold change (saracatinib) | log2 fold change [4] | log2 fold change [5]
CXXC5 (UniProt Q7LFL8) |  |  |  |  |  |  |  | inactive: -0.145 |  | 
CTSS (UniProt P25774) |  |  |  |  |  | inactive: -0.058 | inactive: 0.227 | inactive: -0.058 | inactive: -0.19 | 
CSNK2A1, A0A2R8Y4D6 |  |  |  |  | inactive: -0.325 |  |  |  |  | inactive: 0.107

Next part

Target | log2 fold change (vemurafenib) | log2 fold change (barasertib) | log2 fold change [1] | log2 fold change (sotrastaurin) | log2 fold change (volasertib) | log2 fold change [2] | log2 fold change [3] | log2 fold change (saracatinib) | log2 fold change [4] | log2 fold change [5]
CSNK1A1 isoform 3 (UniProt P48729) |  |  | inactive: -0.199 |  |  |  |  | inactive: -0.175 |  | 
CREM isoform 1 (UniProt Q03060) |  | inactive: -0.075 | inactive: -0.094 | inactive: 0.035 | inactive: -0.011 | inactive: -0.018 | inactive: 0.022 | inactive: 0.013 |  | inactive: -0.028
CROT isoform 3 (UniProt Q9UKG9) |  |  |  | inactive: 0 |  | inactive: -0.014 | inactive: 0.067 |  | inactive: -0.151 | 
CUL9 (UniProt Q8IWT3) |  | inactive: 0.194 |  | inactive: -0.032 | inactive: 0.044 | inactive: -0.191 | inactive: -0.309 |  |  | inactive: -0.05
CROCCP2 (UniProt Q86T23) |  |  |  | inactive: 0.094 | inactive: -0.098 |  |  |  | inactive: 0.042 | inactive: 0.03
CTDNEP1 (UniProt O95476) |  |  |  | inactive: 0.08 |  |  |  | inactive: -0.032 |  | 
CYFIP1, A0A0G2JRV9 |  |  |  |  | inactive: -0.069 |  |  |  |  | inactive: -0.089
CSNK1G3 isoform 4 (UniProt Q9Y6M4) |  |  |  |  | inactive: 0.111 |  |  |  |  | inactive: -0.238
CS (UniProt F8VU34) |  | inactive: 0.214 | inactive: 0.061 |  | inactive: 0.11 |  |  | inactive: 0.094 |  | inactive: 0.184
CYB5A (UniProt P00167) |  | inactive: 0.169 | inactive: 0.023 | inactive: -0.084 |  | inactive: -0.167 | inactive: 0.074 | inactive: -0.074 | inactive: 0.183 | 
CRY1 (UniProt Q16526) |  |  |  |  |  | inactive: 0.056 | inactive: -0.076 |  |  | 
CTSF (UniProt Q9UBX1) |  |  | inactive: 0.164 |  |  | inactive: -0.091 | inactive: -0.098 |  |  | 
CSNK1G1 (UniProt Q9HCP0) |  | inactive: 0.01 |  |  | inactive: 0.027 |  |  | inactive: -0.001 |  | inactive: -0.235
CSGALNACT2 (UniProt Q8N6G5) |  |  |  | inactive: -0.085 | inactive: -0.323 |  |  | inactive: 0.083 |  | inactive: -0.013
CSRP2 (UniProt Q16527) |  | inactive: 0.078 |  | active: -0.351 |  | inactive: 0.09 | inactive: 0.126 |  | inactive: 0.052 | 
CSDE1 isoform 3 (UniProt O75534) |  | inactive: 0.05 | inactive: 0.113 | inactive: 0.07 | inactive: -0.193 | inactive: -0.064 | inactive: -0.104 |  |  | inactive: -0.014
CTDSP1 isoform 3 (UniProt Q9GZU7) |  | inactive: 0.066 |  |  |  |  |  |  |  | 
CRIP2 isoform 2 (UniProt P52943) |  | inactive: -0.018 | inactive: -0.004 | inactive: 0.004 | inactive: -0.017 | inactive: 0.085 | inactive: 0.158 | inactive: 0.045 |  | inactive: -0.04
